Assay [1] deals with T1, HDAC10 (histone deacetylase 10), endogenous in THP1 cells (human (endogenous in THP1)) (UniProt Q969S8).
T1 sequence: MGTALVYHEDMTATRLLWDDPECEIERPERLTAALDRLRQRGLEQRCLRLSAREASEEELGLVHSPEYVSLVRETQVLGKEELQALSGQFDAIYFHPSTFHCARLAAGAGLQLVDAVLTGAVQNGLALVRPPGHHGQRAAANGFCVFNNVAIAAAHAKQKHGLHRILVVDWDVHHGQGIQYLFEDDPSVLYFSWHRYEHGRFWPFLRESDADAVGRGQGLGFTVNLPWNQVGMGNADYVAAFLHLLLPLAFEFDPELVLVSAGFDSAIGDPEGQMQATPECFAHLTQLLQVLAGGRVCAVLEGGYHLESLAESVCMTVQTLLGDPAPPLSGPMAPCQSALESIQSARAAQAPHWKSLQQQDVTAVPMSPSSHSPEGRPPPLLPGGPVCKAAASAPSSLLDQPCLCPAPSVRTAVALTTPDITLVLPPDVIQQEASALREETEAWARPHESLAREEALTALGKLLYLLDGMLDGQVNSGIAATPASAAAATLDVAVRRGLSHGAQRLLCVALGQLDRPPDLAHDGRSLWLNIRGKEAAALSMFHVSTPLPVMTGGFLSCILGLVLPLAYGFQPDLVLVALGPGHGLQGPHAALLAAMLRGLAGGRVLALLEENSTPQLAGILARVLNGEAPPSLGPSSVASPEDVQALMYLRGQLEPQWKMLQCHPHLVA
The assay can be described thus: co-IP; endogenous proteins in THP1 cells treated with HDM; 1 mg lysate protein, 1 ug antibody to HDAC10 or STAT3 (IgG as control) overnight at 4 °C, Protein G beads, immunoblot.

Protein sequences, listed by entry. Tags and fused reporters are not part of them.
UniProt P40763: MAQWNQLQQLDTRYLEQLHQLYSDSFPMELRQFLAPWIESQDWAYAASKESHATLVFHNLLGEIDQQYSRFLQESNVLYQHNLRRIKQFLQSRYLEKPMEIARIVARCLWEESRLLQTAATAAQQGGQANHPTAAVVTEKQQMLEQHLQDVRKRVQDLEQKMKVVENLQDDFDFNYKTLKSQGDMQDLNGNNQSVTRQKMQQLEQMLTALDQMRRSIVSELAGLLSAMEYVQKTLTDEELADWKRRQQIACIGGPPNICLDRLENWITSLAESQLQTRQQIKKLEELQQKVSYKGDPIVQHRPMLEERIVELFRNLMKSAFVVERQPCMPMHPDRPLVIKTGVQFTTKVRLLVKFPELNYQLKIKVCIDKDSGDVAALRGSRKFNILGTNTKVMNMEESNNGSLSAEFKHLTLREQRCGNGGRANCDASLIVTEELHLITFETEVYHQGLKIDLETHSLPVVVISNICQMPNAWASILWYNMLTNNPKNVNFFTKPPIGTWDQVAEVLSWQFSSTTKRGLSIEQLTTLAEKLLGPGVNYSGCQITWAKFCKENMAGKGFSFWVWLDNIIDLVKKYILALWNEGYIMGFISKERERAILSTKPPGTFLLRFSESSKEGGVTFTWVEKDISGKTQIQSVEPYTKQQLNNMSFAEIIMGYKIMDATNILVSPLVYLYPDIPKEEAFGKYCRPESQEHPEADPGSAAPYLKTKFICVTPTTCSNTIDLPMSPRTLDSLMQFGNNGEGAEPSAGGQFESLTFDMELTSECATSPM

Assay [2] addresses STAT3, endogenous in THP1 cells (human (endogenous in THP1)) (UniProt P40763). The assay is described as above.
The next assay addresses HA-tagged STAT3 (UniProt P40763). The experiment in a line: co-IP; THP1 cells transfected with HA-tagged STAT3 alone or together with Flag-tagged HDAC10; IP with antibody to HA or Flag, immunoblot. On the technique in general: Immunoblotting shows a protein as a band on a membrane.
The target in the next assay is GST-HA-STAT3 (UniProt P40763). The experiment in a line: pull-down; called GST pull-down; purified GST-HDAC10 and GST-HA-STAT3 mixed in equal amounts, primary antibody overnight at 4 °C, Protein G beads 1~2 h, western blot with anti-HDAC10 or anti-STAT3; both purified.

These are yes or no findings as the source states them, for the method shown. For some of these results: Binding seen in cells or lysates may run through a third protein. Some entries that bind do so weakly or less than the wild type. Where a sequence is shown, tags or fusion partners need not be part of it.

Consider “STAT3, endogenous in THP1 cells (from UniProt P40763 1-770)”, for which the binding entry in assay [1] was “binds”.

B1: HDAC10 (histone deacetylase 10), endogenous in THP1 cells (protein, UniProt Q969S8 1-669)
chain: T1 sequence
Consider B1, for which the binding entry in assay [2] is “binds”.

B2: Flag-tagged HDAC10 (protein, UniProt Q969S8 1-669)
chain: T1 sequence
For B2, the binding result in the assay with HA-tagged STAT3 is listed as “binds”.

B3: GST-HDAC10 (protein, UniProt Q969S8 1-669)
chain: T1 sequence
B3: the binding entry in the assay with GST-HA-STAT3 was “binds”.

The record behind these values is publication PMC10334828.
